Reference: PubChem BioAssay AID504784 (Drosophila RNAi Screening Center, 2011)
In all, the deposit lists about 17,000 reagents; this is an unselected part of those that have a named target and a result. 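Each column is one replicate's B-score; the combined score over replicates was not deposited, so single values may mislead.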 A plus sign joins genes that one reagent is predicted to hit.

- Aim: 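Genome-wide knock-down for genes giving too much or too little stored lipid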 (primary screen)
- Cells: Drosophila Kc167 embryonic cells
- Reagent: long dsRNA against Drosophila genes, about 250 ng dsRNA per well
- Duration: 4 days
- Challenge: cells fed 400 µM oleic acid bound to BSA
- Measured: 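Cells imaged and segmented; ratio of lipid droplet area to nuclear area, log-transformed, then normalised as a B-score over the screen; higher means more stored lipid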
- Scale: droplet/nuclear area B-score: higher = more stored lipid (overstorage)

gene | amplicon | droplet/nuclear area B-score, replicate 1 | droplet/nuclear area B-score, replicate 2 | droplet/nuclear area B-score, replicate 3
tj | DRSC02011 | -0.039 | 2.35 | –
CG4701 | DRSC01952 | 2.61 | -0.429 | –
PIG-B | DRSC08216 | -0.827 | 1.43 | 0.397
PIG-B | DRSC22598 | 0.805 | -0.183 | –
dyl | DRSC08466 | 0.0532 | 0.912 | –
dyl | DRSC08467 | -1.36 | -2.68 | –
CG14913 | DRSC02397 | -0.548 | -0.469 | –
Spt20 | DRSC10280 | -6.2 | -3.16 | –
Spt20 | DRSC22993 | -0.035 | -1.11 | –
CG31076 | DRSC16017 | -0.184 | -1.29 | –
Polr3A | DRSC19766 | 0.052 | 0.255 | –

Entries above whose gene name starts with D or d:
gene | amplicon | droplet/nuclear area B-score, replicate 1 | droplet/nuclear area B-score, replicate 2 | droplet/nuclear area B-score, replicate 3
dyl | DRSC08466 | 0.0532 | 0.912 | –
dyl | DRSC08467 | -1.36 | -2.68 | –

Further results follow.
gene | amplicon | droplet/nuclear area B-score, replicate 1 | droplet/nuclear area B-score, replicate 2 | droplet/nuclear area B-score, replicate 3
CG4390 | DRSC15572 | -0.696 | 0.0126 | –
Noc1 | DRSC10921 | 2.01 | -1.43 | –
Cyp313a5 | DRSC16628 | -0.497 | 0.31 | –
VhaAC45RP | DRSC15423 | -1.14 | -0.251 | –
CG14711 + Zaf1 | DRSC14934 | 0.22 | 3.25 | –
mbf1 | DRSC11365 | -0.0712 | 0.471 | 0.194
CG4882 | DRSC04495 | 1.84 | 3.63 | –
CG9389 | DRSC11857 | 0.197 | -0.00709 | -1.25
crq | DRSC00810 | 0.0302 | 0.0553 | –
CG5877 | DRSC19963 | 0.808 | -0.394 | 0.0111
Gr64c | DRSC08445 | 0.729 | 0.669 | –
Eno | DRSC00750 | -0.541 | -0.812 | –
CG14309 | DRSC14788 | 0.31 | 0.111 | –
ebd1 | DRSC08565 | -0.00497 | – | –
CG13614 | DRSC14617 | 0.0284 | -0.213 | –
Atg3 | DRSC10736 | 1.65 | 0.00312 | -0.273
Atg3 | DRSC21758 | -1.08 | -0.904 | –
CG9981 | DRSC20225 | 0.0284 | -0.0435 | –
CG18130 | DRSC19790 | -0.631 | 0.893 | -1.27
CG31321 | DRSC13028 | 0.662 | 2.92 | –
ppk12 | DRSC04086 | 0.00988 | 0.0111 | –
Targ | DRSC06206 | 0.907 | -0.712 | –
CG31515 | DRSC13610 | -0.182 | 1.17 | –
